Assay results: paper doi:10.1101/2023.08.31.555694
No constants are given. Whether binding was seen depends on the method and setting. In cells and extracts the contact can be indirect. Binding calls can cover weak binding; strength is not graded here. Sequences can lack the tags named with a protein.

T1: Fny-CMV 1a protein, YFP N-proximal domain fusion for BiFC (cucumber mosaic virus, strain Fny) (UniProt P17769)
T1 sequence: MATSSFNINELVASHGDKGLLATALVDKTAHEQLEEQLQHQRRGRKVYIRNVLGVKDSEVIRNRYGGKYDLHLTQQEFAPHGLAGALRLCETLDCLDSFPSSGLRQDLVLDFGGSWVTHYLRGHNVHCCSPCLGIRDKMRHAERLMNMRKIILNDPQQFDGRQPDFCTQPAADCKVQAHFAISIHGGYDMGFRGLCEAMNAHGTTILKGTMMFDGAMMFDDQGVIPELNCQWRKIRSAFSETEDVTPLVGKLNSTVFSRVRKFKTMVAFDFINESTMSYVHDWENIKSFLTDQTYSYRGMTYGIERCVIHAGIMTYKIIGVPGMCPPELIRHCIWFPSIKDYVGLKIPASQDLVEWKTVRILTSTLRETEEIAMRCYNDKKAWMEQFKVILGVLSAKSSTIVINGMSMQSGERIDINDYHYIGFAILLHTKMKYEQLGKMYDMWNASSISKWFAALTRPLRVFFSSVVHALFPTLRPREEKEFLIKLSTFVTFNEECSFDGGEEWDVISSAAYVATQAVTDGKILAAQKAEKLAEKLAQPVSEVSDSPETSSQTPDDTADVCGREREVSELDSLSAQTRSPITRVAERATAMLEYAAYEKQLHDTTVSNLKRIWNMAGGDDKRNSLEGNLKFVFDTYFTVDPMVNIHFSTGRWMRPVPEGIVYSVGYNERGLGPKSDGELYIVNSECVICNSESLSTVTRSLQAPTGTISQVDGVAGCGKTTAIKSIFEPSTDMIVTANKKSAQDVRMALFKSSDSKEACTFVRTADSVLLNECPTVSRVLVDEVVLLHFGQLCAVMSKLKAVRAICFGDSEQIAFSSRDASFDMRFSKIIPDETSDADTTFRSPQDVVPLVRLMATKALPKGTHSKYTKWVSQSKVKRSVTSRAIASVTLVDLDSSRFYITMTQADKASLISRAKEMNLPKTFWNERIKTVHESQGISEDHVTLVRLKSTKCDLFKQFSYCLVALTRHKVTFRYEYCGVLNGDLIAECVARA

B1: GFP-tagged Fny-CMV 1a protein (protein, UniProt P17769 1-993)
chain: MATSSFNINELVASHGDKGLLATALVDKTAHEQLEEQLQHQRRGRKVYIRNVLGVKDSEVIRNRYGGKYDLHLTQQEFAPHGLAGALRLCETLDCLDSFPSSGLRQDLVLDFGGSWVTHYLRGHNVHCCSPCLGIRDKMRHAERLMNMRKIILNDPQQFDGRQPDFCTQPAADCKVQAHFAISIHGGYDMGFRGLCEAMNAHGTTILKGTMMFDGAMMFDDQGVIPELNCQWRKIRSAFSETEDVTPLVGKLNSTVFSRVRKFKTMVAFDFINESTMSYVHDWENIKSFLTDQTYSYRGMTYGIERCVIHAGIMTYKIIGVPGMCPPELIRHCIWFPSIKDYVGLKIPASQDLVEWKTVRILTSTLRETEEIAMRCYNDKKAWMEQFKVILGVLSAKSSTIVINGMSMQSGERIDINDYHYIGFAILLHTKMKYEQLGKMYDMWNASSISKWFAALTRPLRVFFSSVVHALFPTLRPREEKEFLIKLSTFVTFNEECSFDGGEEWDVISSAAYVATQAVTDGKILAAQKAEKLAEKLAQPVSEVSDSPETSSQTPDDTADVCGREREVSELDSLSAQTRSPITRVAERATAMLEYAAYEKQLHDTTVSNLKRIWNMAGGDDKRNSLEGNLKFVFDTYFTVDPMVNIHFSTGRWMRPVPEGIVYSVGYNERGLGPKSDGELYIVNSECVICNSESLSTVTRSLQAPTGTISQVDGVAGCGKTTAIKSIFEPSTDMIVTANKKSAQDVRMALFKSSDSKEACTFVRTADSVLLNECPTVSRVLVDEVVLLHFGQLCAVMSKLKAVRAICFGDSEQIAFSSRDASFDMRFSKIIPDETSDADTTFRSPQDVVPLVRLMATKALPKGTHSKYTKWVSQSKVKRSVTSRAIASVTLVDLDSSRFYITMTQADKASLISRAKEMNLPKTFWNERIKTVHESQGISEDHVTLVRLKSTKCDLFKQFSYCLVALTRHKVTFRYEYCGVLNGDLIAECVARA

Columns and labels:
[1] = target: T1, Fny-CMV 1a protein, YFP N-proximal domain fusion for BiFC (cucumber mosaic virus, strain Fny); test: split reporter
[2] = target: Fny-CMV 2b protein, C-terminal RFP fusion (cucumber mosaic virus, strain Fny); test: co-IP
[3] = target: Ho-CMV 2b protein (recapitulated from Fny-CMV 2b), C-terminal RFP fusion (cucumber mosaic virus, strain Ho); test: co-IP

Molecule | binding [1] | binding [2] | binding [3]
Fny-CMV 2b protein, split-YFP fusion for BiFC (cucumber mosaic virus, strain Fny) | binds |  | 
Ho-CMV 2b protein (recapitulated from Fny-CMV 2b), split-YFP fusion for BiFC (cucumber mosaic virus, strain Ho) | binds |  | 
B1 |  | binds | binds
